Test [1] concerns the target T1, Klotho-EGFP WT (mouse Klotho C-terminally tagged with EGFP) (mouse) (UniProt O35082).
T1 sequence: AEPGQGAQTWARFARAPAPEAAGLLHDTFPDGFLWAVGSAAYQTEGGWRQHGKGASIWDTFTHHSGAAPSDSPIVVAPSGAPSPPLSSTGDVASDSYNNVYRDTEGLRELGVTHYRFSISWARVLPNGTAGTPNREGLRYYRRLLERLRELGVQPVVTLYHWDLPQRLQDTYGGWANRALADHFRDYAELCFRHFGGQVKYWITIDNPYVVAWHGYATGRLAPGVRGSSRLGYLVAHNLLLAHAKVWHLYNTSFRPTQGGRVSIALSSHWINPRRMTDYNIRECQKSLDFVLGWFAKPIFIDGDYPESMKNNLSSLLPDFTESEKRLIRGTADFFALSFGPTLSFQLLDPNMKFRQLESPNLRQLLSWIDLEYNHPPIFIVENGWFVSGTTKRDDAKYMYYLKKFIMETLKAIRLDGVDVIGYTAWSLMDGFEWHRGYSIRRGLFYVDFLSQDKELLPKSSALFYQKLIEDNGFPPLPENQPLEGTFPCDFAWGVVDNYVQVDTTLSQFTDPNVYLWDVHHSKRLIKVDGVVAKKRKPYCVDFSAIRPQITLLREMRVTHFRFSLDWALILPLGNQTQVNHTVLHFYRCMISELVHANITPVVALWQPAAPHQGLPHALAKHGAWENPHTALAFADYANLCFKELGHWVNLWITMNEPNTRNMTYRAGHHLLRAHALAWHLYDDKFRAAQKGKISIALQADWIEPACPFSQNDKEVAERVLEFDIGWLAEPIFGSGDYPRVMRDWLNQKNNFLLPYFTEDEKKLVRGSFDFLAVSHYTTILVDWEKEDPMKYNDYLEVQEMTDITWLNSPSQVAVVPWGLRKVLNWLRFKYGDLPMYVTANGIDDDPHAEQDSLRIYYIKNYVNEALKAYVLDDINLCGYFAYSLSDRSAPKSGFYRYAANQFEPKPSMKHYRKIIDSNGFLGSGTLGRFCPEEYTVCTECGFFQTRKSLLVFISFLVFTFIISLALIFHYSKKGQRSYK
The test is described as follows: co-IP; GFP-TRAP agarose immunoprecipitation from CHAPSO lysates (150 mM citrate buffer pH 6.4, 2% CHAPSO; overnight, 4 °C) of HEK293T cells stably expressing Klotho-EGFP variants, Western blot; cells with or without 2.5 nM FGF23 for 5 min.

Protein sequences, listed by entry. Tags and fused reporters are not part of them. Residues count along the entry.
UniProt P22607, residues 23-806: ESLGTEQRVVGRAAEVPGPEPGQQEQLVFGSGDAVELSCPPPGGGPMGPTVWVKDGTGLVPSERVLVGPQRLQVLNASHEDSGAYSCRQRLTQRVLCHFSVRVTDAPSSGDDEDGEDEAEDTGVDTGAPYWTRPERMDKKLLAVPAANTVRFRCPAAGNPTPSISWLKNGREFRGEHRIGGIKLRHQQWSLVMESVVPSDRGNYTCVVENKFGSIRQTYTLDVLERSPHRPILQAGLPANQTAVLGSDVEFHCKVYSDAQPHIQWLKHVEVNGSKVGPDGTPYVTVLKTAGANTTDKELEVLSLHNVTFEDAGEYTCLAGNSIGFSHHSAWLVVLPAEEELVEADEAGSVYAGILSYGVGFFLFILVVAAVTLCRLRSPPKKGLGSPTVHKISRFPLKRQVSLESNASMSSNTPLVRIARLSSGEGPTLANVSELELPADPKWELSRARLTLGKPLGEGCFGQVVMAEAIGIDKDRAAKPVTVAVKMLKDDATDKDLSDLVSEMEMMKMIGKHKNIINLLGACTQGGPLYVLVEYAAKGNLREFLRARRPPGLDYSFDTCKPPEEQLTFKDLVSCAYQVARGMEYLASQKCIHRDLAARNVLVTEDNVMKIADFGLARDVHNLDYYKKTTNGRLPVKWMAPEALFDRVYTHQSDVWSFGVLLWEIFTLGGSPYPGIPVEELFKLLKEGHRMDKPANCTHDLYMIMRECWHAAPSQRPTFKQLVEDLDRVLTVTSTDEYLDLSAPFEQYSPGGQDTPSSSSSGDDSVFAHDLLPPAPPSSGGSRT
UniProt P11021, residues 19-654: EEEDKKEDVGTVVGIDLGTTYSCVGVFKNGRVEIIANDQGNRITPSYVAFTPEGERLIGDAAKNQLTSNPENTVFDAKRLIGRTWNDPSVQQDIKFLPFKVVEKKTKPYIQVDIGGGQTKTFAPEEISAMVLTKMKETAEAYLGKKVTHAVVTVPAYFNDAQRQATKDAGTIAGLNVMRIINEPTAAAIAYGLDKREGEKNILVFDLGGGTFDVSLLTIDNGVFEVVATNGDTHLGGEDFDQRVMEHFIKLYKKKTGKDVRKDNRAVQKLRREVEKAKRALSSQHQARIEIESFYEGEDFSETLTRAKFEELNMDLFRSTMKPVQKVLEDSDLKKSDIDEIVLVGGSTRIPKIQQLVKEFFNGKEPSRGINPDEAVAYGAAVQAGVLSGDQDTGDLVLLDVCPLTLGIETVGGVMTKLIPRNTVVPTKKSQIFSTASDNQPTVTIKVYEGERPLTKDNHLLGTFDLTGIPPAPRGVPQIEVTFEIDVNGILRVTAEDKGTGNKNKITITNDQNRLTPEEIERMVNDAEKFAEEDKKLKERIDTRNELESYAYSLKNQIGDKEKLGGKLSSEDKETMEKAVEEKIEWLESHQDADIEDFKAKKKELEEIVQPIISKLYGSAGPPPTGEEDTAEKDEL

Test [2] concerns the target T2, Klotho-EGFP N614Q (mouse) (UniProt O35082).
T2 sequence: T1 sequence with N580Q
The description is as above.

Positions count from the first letter of the chain named. No constants are given. Whether binding was seen depends on the method and setting. Binding seen in cells or lysates may run through a third protein. Some entries that bind do so weakly or less than the wild type. Tags and fused reporters may be left off the sequences shown.

Regarding “FGFR3 (FGF Receptor 3) (from UniProt P22607 23-806)”, the binding result in test [1] and in test [2] was “binds” throughout.

Regarding “HSPA5 (BiP) (from UniProt P11021 19-654)”, the binding result in test [1] and in test [2] was “binds” each time.

B1: ERGIC53 (protein, UniProt P49257 31-510)
chain: DGVGGDPAVALPHRRFEYKYSFKGPHLVQSDGTVPFWAHAGNAIPSSDQIRVAPSLKSQRGSVWTKTKAAFENWEVEVTFRVTGRGRIGADGLAIWYAENQGLEGPVFGSADLWNGVGIFFDSFDNDGKKNNPAIVIIGNNGQIHYDHQNDGASQALASCQRDFRNKPYPVRAKITYYQNTLTVMINNGFTPDKNDYEFCAKVENMIIPAQGHFGISAATGGLADDHDVLSFLTFQLTEPGKEPPTPDKEISEKEKEKYQEEFEHFQQELDKKKEEFQKGHPDLQGQPAEEIFESVGDRELRQVFEGQNRIHLEIKQLNRQLDMILDEQRRYVSSLTEEISKRGAGMPGQHGQITQQELDTVVKTQHEILRQVNEMKNSMSETVRLVSGMQHPGSAGGVYETTQHFIDIKEHLHIVKRDIDNLVQRNMPSNEKPKCPELPPFPSCLSTVHFIIFVVVQTVLFIGYIMYRSQQEAAAKKFF
As for B1, the binding entry in test [1] and in test [2] was “binds” each time.

For the origin of these results see paper PMC11506777.
